Data taken from publication PMC10906927, “Structure of the PCNA unloader Elg1-RFC” (Science Advances, 2024).
Results are given in words; binding and its absence hold for the method and conditions named. Some entries that bind do so weakly or less than the wild type.

Assays:
Experiment in all cases: cryo-EM structure; contacts between subunits inside the Elg1-RFC pentamer, which was co-expressed in E. coli and purified as one complex; seen in Elg1-RFC alone and with PCNA; ATPgammaS in Elg1, Rfc2, Rfc3, Rfc4, ADP in Rfc5; both purified
[1] = target: T1, Rfc3, subunit of Elg1-RFC (S. cerevisiae, UniProt P38629 1-340)
T1 construct: Rfc3, S. cerevisiae replication factor C subunit 3; Stood in the assay as a subunit of the Elg1-RFC pentamer; source: E. coli BLR(DE3), co-expressed with Elg1 and Rfc2, 4, 5, purified as Elg1-RFC (anti-FLAG resin, MonoS)
T1 sequence: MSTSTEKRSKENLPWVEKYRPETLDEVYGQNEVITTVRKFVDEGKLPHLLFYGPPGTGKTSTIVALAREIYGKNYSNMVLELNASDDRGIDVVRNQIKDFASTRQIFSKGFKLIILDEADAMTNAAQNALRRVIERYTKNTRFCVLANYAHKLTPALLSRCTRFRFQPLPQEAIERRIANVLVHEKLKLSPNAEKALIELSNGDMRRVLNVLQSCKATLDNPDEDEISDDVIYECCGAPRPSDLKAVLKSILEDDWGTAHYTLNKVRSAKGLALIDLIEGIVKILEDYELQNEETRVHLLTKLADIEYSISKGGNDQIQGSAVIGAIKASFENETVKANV

[2] = target: T2, Rfc5, subunit of Elg1-RFC (S. cerevisiae) (UniProt P38251)
T2 sequence: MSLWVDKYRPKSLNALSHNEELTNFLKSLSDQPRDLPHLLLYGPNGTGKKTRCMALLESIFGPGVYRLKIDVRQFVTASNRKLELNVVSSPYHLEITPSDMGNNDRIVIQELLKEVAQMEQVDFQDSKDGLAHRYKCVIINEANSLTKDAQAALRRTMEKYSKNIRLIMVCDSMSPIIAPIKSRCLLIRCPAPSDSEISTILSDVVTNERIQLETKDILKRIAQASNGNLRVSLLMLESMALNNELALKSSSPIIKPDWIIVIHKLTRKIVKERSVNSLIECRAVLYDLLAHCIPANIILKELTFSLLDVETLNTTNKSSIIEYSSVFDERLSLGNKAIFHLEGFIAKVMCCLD

[3] = target: T3, Rfc4, subunit of Elg1-RFC (S. cerevisiae, UniProt P40339 1-323)
T3 construct: Rfc4, S. cerevisiae replication factor C subunit 4; Stood in the assay as a subunit of the Elg1-RFC pentamer; source: E. coli BLR(DE3), co-expressed with Elg1 and Rfc2, 3, 5, purified as Elg1-RFC (anti-FLAG resin, MonoS)
T3 sequence: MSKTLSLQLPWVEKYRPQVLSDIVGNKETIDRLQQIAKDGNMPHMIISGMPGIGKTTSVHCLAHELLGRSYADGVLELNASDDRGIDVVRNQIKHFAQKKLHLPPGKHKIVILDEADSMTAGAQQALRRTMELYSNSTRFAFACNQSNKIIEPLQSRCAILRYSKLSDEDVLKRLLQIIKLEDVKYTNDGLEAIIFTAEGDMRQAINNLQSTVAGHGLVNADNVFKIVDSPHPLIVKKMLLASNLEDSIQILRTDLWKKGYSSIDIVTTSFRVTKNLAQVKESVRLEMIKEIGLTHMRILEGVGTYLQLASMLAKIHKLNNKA

- binding [1]: binds
- binding [2]: binds
- binding [3]: binds
B1: Elg1 (enhanced levels of genome instability 1), subunit of Elg1-RFC (protein, UniProt Q12050 1-791)
chain: MKRHVSLSDILTGNKRKVRRQDALQITIDDENDTESGTFDARTAKHDDSSVIFLNHSVVKPIEAVSTNHKSAKEFLMTKRTKEKCDDDDDDLIVISDKSPKSETNCSKIALSQEHEDDISIISTSRIKSSLLNERASKIKNFLKHETTDTFKRLNSISKLNEIEPPLPLHQSIFPVGDKELSDRSVDIPLPFRTIPPLNHNFLPSDYESLKDKNSASCIPVRYQAPVLLGTNIKRNTTLTWPQLFKPVTLKQVLIEPKLKLRIKNWIETSFHTLEKPTLRNRLLNRINPNKQQGSGDELANFIVPDLEEDENLRPDFYRNGEANSSLSEFVPLMILHGNSIGKKTLIQTIMREIAGDDNSYQIYEVNSNMNRSKKDLLDILLDFTTTHYVKDSSKRKSDYGLVLFNDVDVLFKEHDRGYWAMISKLCEFSRRPLVLTCKDLSLVPSELIALASEQNSLFHTKKISTSTVYAFLTKYLKSLEIEVCDDWLRDVVKQNNADIRKCLMHLQFWCVDTEADLISSKNRLPVLTSTLGSSVKDISQLTDLLSINDVIGQATLNRSMVRQEIDSTTMTPEKVNTFQDQNLDDEMKLKFDYVIDYKLHLNDPNRQPLLPFELNIYQHIQEQLEARYSYVREANHRLDNEYLVNRFKKMTESTLNFLASRIPKYDHLQSARRTRNSKKISDILNQFKGIYNDETLNENAEIDLLSATTQQIKAEINPFVFEIAKSDANVKNENKQIFELHSENVSERRYKDLVYQLSQEGVLKNVWFNADPSIVVRKWEHLHSGFSKNK
